Experimental data: PMC8644457
These are yes or no findings as the source states them, for the method shown. Some results given as binding are weak or reduced against the parent protein; the word gives no strength. Where a sequence is shown, tags or fusion partners need not be part of it.

Assays:
[1] = target: T1, SDI1 fused to the Gal4 DNA-binding domain (Arabidopsis thaliana) (UniProt Q8GXU5); assay: yeast three-hybrid; pBridge SDI1BD-MYB28 (SDI1 fused to Gal4 DNA-BD, MYB28 as untagged bridging protein) co-transformed with MYC2AD prey; dropout plates (DDO, TDO, QDO) with or without X-α-Gal and Aureobasidin
T1 sequence: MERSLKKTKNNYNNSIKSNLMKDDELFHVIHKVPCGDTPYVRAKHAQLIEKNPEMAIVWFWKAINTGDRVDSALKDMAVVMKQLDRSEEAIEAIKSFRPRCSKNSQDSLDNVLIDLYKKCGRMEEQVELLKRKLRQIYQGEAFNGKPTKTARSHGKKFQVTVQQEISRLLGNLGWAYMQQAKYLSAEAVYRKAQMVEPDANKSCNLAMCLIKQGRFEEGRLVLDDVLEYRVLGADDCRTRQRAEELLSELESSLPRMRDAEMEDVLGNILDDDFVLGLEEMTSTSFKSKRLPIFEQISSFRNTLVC

[2] = target: T2, MYB28 fused to the Gal4 DNA-binding domain (Arabidopsis thaliana) (UniProt Q9SPG2); assay: yeast three-hybrid; pBridge MYB28BD-SDI (MYB28 fused to Gal4 DNA-BD, SDI1 as untagged bridging protein) co-transformed with MYC2AD prey; dropout plates (DDO, TDO, QDO) with or without X-α-Gal and Aureobasidin
T2 sequence: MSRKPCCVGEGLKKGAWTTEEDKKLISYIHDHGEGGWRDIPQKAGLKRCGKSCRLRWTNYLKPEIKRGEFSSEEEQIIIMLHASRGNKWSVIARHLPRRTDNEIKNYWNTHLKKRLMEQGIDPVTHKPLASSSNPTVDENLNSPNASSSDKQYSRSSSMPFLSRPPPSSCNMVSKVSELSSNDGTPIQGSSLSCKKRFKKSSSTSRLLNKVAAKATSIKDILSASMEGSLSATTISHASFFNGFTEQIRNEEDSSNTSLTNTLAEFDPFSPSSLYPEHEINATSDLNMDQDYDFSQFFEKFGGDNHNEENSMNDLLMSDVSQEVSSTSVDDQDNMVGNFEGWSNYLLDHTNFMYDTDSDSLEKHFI

B1: MYB28 expressed as the bridging protein (no binding or activation domain) (protein, UniProt Q9SPG2 1-366)
chain: MSRKPCCVGEGLKKGAWTTEEDKKLISYIHDHGEGGWRDIPQKAGLKRCGKSCRLRWTNYLKPEIKRGEFSSEEEQIIIMLHASRGNKWSVIARHLPRRTDNEIKNYWNTHLKKRLMEQGIDPVTHKPLASSSNPTVDENLNSPNASSSDKQYSRSSSMPFLSRPPPSSCNMVSKVSELSSNDGTPIQGSSLSCKKRFKKSSSTSRLLNKVAAKATSIKDILSASMEGSLSATTISHASFFNGFTEQIRNEEDSSNTSLTNTLAEFDPFSPSSLYPEHEINATSDLNMDQDYDFSQFFEKFGGDNHNEENSMNDLLMSDVSQEVSSTSVDDQDNMVGNFEGWSNYLLDHTNFMYDTDSDSLEKHFI
For B1, the binding [1] was “binds”.

B2: SDI1 expressed as the bridging protein (no binding or activation domain) (protein, UniProt Q8GXU5 1-306)
chain: MERSLKKTKNNYNNSIKSNLMKDDELFHVIHKVPCGDTPYVRAKHAQLIEKNPEMAIVWFWKAINTGDRVDSALKDMAVVMKQLDRSEEAIEAIKSFRPRCSKNSQDSLDNVLIDLYKKCGRMEEQVELLKRKLRQIYQGEAFNGKPTKTARSHGKKFQVTVQQEISRLLGNLGWAYMQQAKYLSAEAVYRKAQMVEPDANKSCNLAMCLIKQGRFEEGRLVLDDVLEYRVLGADDCRTRQRAEELLSELESSLPRMRDAEMEDVLGNILDDDFVLGLEEMTSTSFKSKRLPIFEQISSFRNTLVC
In the case of B2, the binding [2] is reported as “binds”.
